This is one part of the list. Shown are side measurements of this screen, not its main read-out; they come without a call. Compounds called inactive in the main read-out are mostly missing here. Potencies come from curve fits of mixed quality, noted in brackets.
Test: qHTS Assay for Modulators of Lamin A Splicing
Settings: HeLa LMNA splicing GFP/RFP minigene ratio, 48 h
Method in brief: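 S3 HeLa stable clones carrying a lamin A-EGFP splicing minigene plus DsRed2 were seeded at 600 cells/well in Opti-MEM with 2% FBS, pin-dosed and incubated 48 h at 37°C. Acumen cytometry (488 nm) gave the GFP/RFP total-intensity ratio.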

[1] = measured here: GFP splicing reporter channel
[2] = measured here: RFP viability control channel

Compound | AC50 [1] | AC50 [2]
Cc1ccc(N2CC(C(=O)Nc3cc(C)ccc3F)CC2=O)cc1 (stereo unspecified) | 15.8 µM [rising, single point] | 14.1 µM [rising, single point]
CCn1c2ccccc2c2cc(NC(=O)COC(=O)C3CCC(=O)N3)ccc21 (stereo unspecified) | – | 5.01 µM [rising, full curve]
C(=C/c1ccccc1)/CN1CCN(C(c2ccccc2)c2ccccc2)CC1 | 0.0355 µM [falling, full curve, poor fit] | 0.158 µM [falling, single point]
CCOc1ccc(CC(=O)NNC(=O)NC2CCCCC2)cc1 | 0.0562 µM [rising, full curve, poor fit] | 4.47 µM [rising, partial curve, poor fit]
O=C(COc1ccc(C(=O)c2ccccc2)cc1)NC1CCCCCC1 | 0.794 µM [rising, partial curve] | 14.1 µM [rising, partial curve]
CCOC(=O)c1c(C)[nH]c(C)c1S(=O)(=O)N1CCCC(C(=O)N2CCN(c3cc(C)ccc3C)CC2)C1 (stereo unspecified) | 10 µM [falling, partial curve] | 14.1 µM [falling, single point]
COc1ccc(NC(=O)C2CCN(S(=O)(=O)c3cccc4cccnc34)CC2)cc1OC | – | 7.94 µM [rising, partial curve, poor fit]
Cn1c2ccccc2c2ncn(CCC3=CCCCC3)c(=O)c21 | – | 35.5 µM [rising, partial curve, poor fit]
CCc1ccc(NC(=O)c2ccc(F)c(S(=O)(=O)NCC3COc4ccccc4O3)c2)cc1 (stereo unspecified) | – | 35.5 µM [rising, single point]
CCOc1cccc(C(=O)Nc2cccc(C(=O)NC(C)(C)C)c2)c1 | – | 28.2 µM [rising, partial curve]
FC(F)(F)c1cc(CO[C@H]2CCCN[C@H]2c2ccccc2)cc(C(F)(F)F)c1 | 22.4 µM [falling, partial curve, poor fit] | 35.5 µM [falling, partial curve, poor fit]
COc1ccc(NC2c3ccccc3C(=O)N2c2cccnc2)cc1Cl (stereo unspecified) | – | 12.6 µM [rising, partial curve]
CCOc1ccc(C(=O)CSCCC(=O)O)cc1 | 1.26 µM [rising, full curve, poor fit] | –
CC1=C(C)/C(=N\OS(=O)(=O)c2ccc(C)cc2)C=CC1=O | – | 35.5 µM [rising, single point]
O=C(CSc1nnnn1-c1ccc(O)cc1)Nc1cccc(S(=O)(=O)N2CCCC2)c1 | – | 35.5 µM [rising, single point]

Record cards, from the list above. Values in the order: AC50 [1]	AC50 [2]
C(=C/c1ccccc1)/CN1CCN(C(c2ccccc2)c2ccccc2)CC1 is listed with 0.0355 µM [falling, full curve, poor fit]	0.158 µM [falling, single point]
CCOc1ccc(CC(=O)NNC(=O)NC2CCCCC2)cc1 is listed with 0.0562 µM [rising, full curve, poor fit]	4.47 µM [rising, partial curve, poor fit]

From PubChem BioAssay AID1487 (National Center for Advancing Translational Sciences (NCATS), 2009)
